# Laboratory results as given in PubChem BioAssay AID540276 (National Center for Advancing Translational Sciences (NCATS), 2011).
# Among all 300,000 compounds or so, about 5,400 (1.8%) were called active. Inconclusive means that the source gave no clear call. Such entries were picked first, then a sample of the others. The call rests on the fitted dose curve; tested in HEK293 cells. Potencies of inconclusive entries are doubtful fits and often do not repeat.
# Experiment: qHTS for inhibitors of binding or entry into cells for Marburg Virus
# Details: Marburg virus pseudotyped entry inhibition, cell reporter; activity change, negative = inhibition: at 37.8 µM (top of the series) unless noted
# On the % scale 0 is the no-effect control and ±100 the full control effect; potency means the concentration at half of the fitted maximal effect.
Structure (SMILES),Potency,"activity change, negative = inhibition"
CC(=O)c1cccc(NC(=O)COc2ccccc2C(=O)c2cc(C#N)c(=O)n(C3CCCCC3)c2)c1,"inconclusive: 12.6 µM [inhibitor, partial curve]",
COc1ccccc1NC(=O)c1cc2ccccc2nc1C,,inactive: 9.95% [at 46.1 µM]
Cc1noc(C)c1COc1ccc(C(=O)N2CCCC(C(F)(F)F)C2)cc1 (stereo not given),,inactive: -28%
C=C(C)CNC(=S)N/N=C(\C)c1ccc(OC)cc1,"inconclusive: 35.5 µM [inhibitor, single point]",
CCN1CCN(c2cc(-c3ccccc3)nc3cc(-c4cccc(F)c4)nn23)CC1,"inconclusive: 22.4 µM [inhibitor, partial curve, poor fit]",
OC(CNCCNc1ncccc1C(F)(F)F)COc1ccc(F)cc1 (stereo not given),"inconclusive: 12.6 µM [inhibitor, single point]",
Cc1cc(-c2ccccc2)nc(N/N=C/c2ccc(O)cc2)n1,"inconclusive: 25.1 µM [inhibitor, single point]",
Cc1ccc(-c2cc3c(N4CCN(c5cc(C)ccc5C)CC4)nccn3n2)cc1,"inconclusive: 5.62 µM [inhibitor, full curve, poor fit]",
Cc1ccc(S(=O)(=O)Cc2ccc(C(=O)NCc3ccc4c(c3)OCO4)o2)cc1,,inactive: -22.5%
O=C(O)CSc1cc(C(F)(F)F)nc(-c2ccccn2)n1,"inconclusive: 6.51 µM [activator, single point]",
FC(F)(F)c1ccc(/C=N/NC(=S)NC2CCCCC2)cc1,,inactive: -0.982%
CC(=O)N1c2c(cc(Br)cc2S(=O)(=O)N2CCN(c3ccccc3)CC2)CC1C (stereo not given),,inactive: -16.1% [at 46.1 µM]
COc1ccc2c(c1)[nH]c1c(=O)n(Cc3ccco3)cnc12,"inconclusive: 35.5 µM [inhibitor, single point]",
Cc1c(Br)c([N+](=O)[O-])nn1CC(=O)NCc1ccco1,"inconclusive: 0.126 µM [inhibitor, full curve, poor fit]",
Cc1ccc(CNC2=NCCCCC2)n1C,,inactive: 6.25%
Cc1ccc(N(CC(=O)N2CCc3ccccc32)S(=O)(=O)c2cccs2)cc1,"inconclusive: 29.1 µM [inhibitor, single point]",
Cc1ccc(C(=O)Nc2ccc(O)cc2C(=O)O)cc1C,,inactive: -3.45%
CN(C)S(=O)(=O)c1ccc(N2CCCC2)c(C(=O)NC(c2ccccc2)c2ccccc2)c1,"inconclusive: 6.51 µM [inhibitor, full curve, poor fit]",
Fc1cccc(CSc2ccc3nnc(-c4cccnc4)n3n2)c1,"inconclusive: 0.398 µM [inhibitor, full curve, poor fit]",
O=C(NCc1ccc(Cl)cc1)C1CCN(S(=O)(=O)c2cccs2)CC1,"inconclusive: 20 µM [inhibitor, single point]",

# An excerpt of these results, with bars between the fields.
Structure (SMILES) | Potency | activity change, negative = inhibition
Cc1ccc(C(=O)Nc2ccc(O)cc2C(=O)O)cc1C |  | inactive: -3.45%
CN(C)S(=O)(=O)c1ccc(N2CCCC2)c(C(=O)NC(c2ccccc2)c2ccccc2)c1 | inconclusive: 6.51 µM [inhibitor, full curve, poor fit] | 
